Measurements taken from article PMC11381343.
These are yes or no findings as the source states them, for the method shown. In cells and extracts the contact can be indirect. Some results given as binding are weak or reduced against the parent protein; the word gives no strength.

Chains of the proteins cited; added tags and fusions are not shown. Lines headed by an entry give the natural chain unless they say otherwise; changes in a name come on top.
UniProt P54132: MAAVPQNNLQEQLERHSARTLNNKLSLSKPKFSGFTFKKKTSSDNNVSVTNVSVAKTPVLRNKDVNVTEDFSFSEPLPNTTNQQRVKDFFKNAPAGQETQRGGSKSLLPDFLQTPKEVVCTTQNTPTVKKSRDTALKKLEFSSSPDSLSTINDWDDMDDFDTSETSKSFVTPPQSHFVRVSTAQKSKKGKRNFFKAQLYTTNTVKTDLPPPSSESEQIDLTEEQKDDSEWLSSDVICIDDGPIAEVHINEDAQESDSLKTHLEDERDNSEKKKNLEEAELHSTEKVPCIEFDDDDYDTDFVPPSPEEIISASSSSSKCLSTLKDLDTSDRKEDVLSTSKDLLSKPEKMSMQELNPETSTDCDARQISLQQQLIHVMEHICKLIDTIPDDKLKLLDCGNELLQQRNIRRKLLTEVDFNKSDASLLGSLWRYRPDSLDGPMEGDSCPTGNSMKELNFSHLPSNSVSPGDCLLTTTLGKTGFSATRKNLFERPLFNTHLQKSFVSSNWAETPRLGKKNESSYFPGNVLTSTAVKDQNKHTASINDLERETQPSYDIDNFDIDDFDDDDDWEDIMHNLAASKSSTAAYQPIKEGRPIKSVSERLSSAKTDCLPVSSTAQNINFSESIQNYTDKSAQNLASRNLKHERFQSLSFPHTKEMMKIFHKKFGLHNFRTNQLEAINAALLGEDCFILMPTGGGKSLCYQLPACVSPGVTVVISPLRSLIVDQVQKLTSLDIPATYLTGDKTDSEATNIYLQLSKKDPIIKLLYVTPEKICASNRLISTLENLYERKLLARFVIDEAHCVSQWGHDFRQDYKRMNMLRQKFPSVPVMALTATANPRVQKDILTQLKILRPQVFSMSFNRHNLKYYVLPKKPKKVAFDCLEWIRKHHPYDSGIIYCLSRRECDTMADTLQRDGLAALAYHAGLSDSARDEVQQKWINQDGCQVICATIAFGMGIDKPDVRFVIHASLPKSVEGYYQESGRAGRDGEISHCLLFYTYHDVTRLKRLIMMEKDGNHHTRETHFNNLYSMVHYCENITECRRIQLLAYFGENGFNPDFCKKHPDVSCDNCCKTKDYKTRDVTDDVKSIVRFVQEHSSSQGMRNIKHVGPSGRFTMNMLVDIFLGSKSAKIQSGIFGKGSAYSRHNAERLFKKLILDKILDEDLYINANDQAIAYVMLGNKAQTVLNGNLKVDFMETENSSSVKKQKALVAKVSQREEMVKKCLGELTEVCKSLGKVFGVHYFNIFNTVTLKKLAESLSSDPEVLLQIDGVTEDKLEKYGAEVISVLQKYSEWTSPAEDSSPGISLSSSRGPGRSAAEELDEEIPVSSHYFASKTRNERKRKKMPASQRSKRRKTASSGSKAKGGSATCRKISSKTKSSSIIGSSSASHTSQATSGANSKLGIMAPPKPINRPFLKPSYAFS
UniProt P54274: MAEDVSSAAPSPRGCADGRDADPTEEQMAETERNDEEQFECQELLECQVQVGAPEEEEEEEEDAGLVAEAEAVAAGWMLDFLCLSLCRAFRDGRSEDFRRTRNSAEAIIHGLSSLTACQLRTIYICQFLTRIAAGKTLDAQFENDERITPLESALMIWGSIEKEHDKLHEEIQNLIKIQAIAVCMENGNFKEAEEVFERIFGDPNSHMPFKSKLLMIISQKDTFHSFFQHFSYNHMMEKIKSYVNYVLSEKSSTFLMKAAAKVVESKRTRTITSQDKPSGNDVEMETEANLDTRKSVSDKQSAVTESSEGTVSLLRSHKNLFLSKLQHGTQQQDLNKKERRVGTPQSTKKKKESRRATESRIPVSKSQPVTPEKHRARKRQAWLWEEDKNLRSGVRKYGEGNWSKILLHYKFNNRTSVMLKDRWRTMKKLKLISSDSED

Key:
Test in all cases: co-IP; BLM mutants co-precipitating TRF1 (Supplementary Figure S4B); format not told
[1] = target: Flag-tagged BLM, wild type, expressed in U2OS cells (human) (UniProt P54132)
[2] = target: Flag-tagged BLM 3A (F686A, L688A, P690A), expressed in U2OS cells (human) (UniProt P54132)
[3] = target: Flag-tagged BLM P690L, expressed in U2OS cells (human) (UniProt P54132)

Measured: binding

TRF1 (from UniProt P54274 1-439)
binds: all assays above
